Measured values as given in PubChem BioAssay AID1347075 (National Center for Advancing Translational Sciences (NCATS), 2019).
The whole screen tested about 400,000 compounds, of which about 5,500 (1.4%) were called active. This list was built around the results that the source calls inconclusive (neither active nor inactive); the mix of calls is not that of the screen. The call rests on the fitted dose curve; in most records, active means well fitted cell-killing curve with a large enough effect; inconclusive means small, poorly fitted or top-dose-only effect, or effect the other way; inactive means flat fitted curve, though single readings scatter. A potency beside an inconclusive call is a rough fit, not a confirmed value.

Experiment: qHTS assay for MDR1-selective chemotherapeutics: Primary screen using the parental adenocarcinoma cell KB-3-1; further: nearly all actives have a fitted effect of over 60% in size
Conditions: KB-3-1 viability, CellTiter-Glo ATP luminescence, 72 h; activity change, negative = cytotoxic: at 46.1 µM (top of the series)
Outline: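 Cytotoxicity in the drug-sensitive parental line KB-3-1 was scored as loss of CellTiter-Glo luminescence following 72 h incubation with compound. Values come from curve fitting of normalized concentration-response data.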
On the % scale 0 is the no-effect control and ±100 the full control effect; potency means the concentration at half of the fitted maximal effect.

**Q.** With `CC(=O)c1cccc(NC(=O)COC(=O)c2ccccn2)c1` as the compound, how does the Potency read?
**A.** inconclusive: 14.6 µM [rising, single point]

**Q.** Which Potency does the source give for `CC(C)(C)Cc1c(-c2ccc(Br)cc2)nc2ccc(Cl)cn12` here?
**A.** inconclusive: 18.4 µM [cytotoxic, single point]

**Q.** With `Cc1ccc(NC(=O)c2c(C)nn(-c3ccccc3)c2-n2cccc2)c(Cl)c1` as the compound, how does the Potency read?
**A.** inactive

**Q.** Which Potency does the source give for `COc1ccc(-c2ccc(N(C)C)cc2)cc1[C@H]1[C@@H]2C=CCC[C@@]2(C)C(=O)N1Cc1ccccc1` here?
**A.** active: 18.4 µM

**Q.** With `COc1ccc(CNC2CC(C)N(C)CC2C)cc1OC` (stereo unspecified) as the compound, how does the Potency read?
**A.** inactive

**Q.** With `COc1ccc(CN2C(=O)CS/C2=N/N=C/c2ccccc2)cc1` as the compound, how does the Potency read?
**A.** inactive

**Q.** With `COc1ccc(C(=O)N(c2ccc(C)cc2)S(=O)(=O)c2ccc(C)cc2)cc1` as the compound, how does the Potency read?
**A.** inconclusive: 18.4 µM [cytotoxic, single point]

**Q.** With `CCCCNS(=O)(=O)c1ccc(S(=O)(=O)NCc2ccncc2)cc1` as the compound, how does the Potency read?
**A.** inconclusive: 29.1 µM [cytotoxic, single point]

**Q.** Which Potency does the source give for `Cc1cc(C(=O)c2ccccc2)cc(C)c1O` here?
**A.** inactive

**Q.** For `COc1cc(C(=O)Nc2cc(-c3ccccc3)[nH]n2)cc(OC)c1OC`, which Potency is on record?
**A.** inconclusive: 29.1 µM [cytotoxic, single point]

**Q.** With `O=C(CCN1C(=O)/C(=C/c2cccs2)SC1=S)NC1=NCCS1` as the compound, how does the Potency read?
**A.** inconclusive: 18.4 µM [rising, single point]

**Q.** With `COc1ccc(Nc2nc(-c3cccs3)nc3ccccc23)cc1` as the compound, how does the Potency read?
**A.** inconclusive: 29.1 µM [cytotoxic, single point]

**Q.** With `CCc1ccc(N/C(SCc2ccccc2C)=C(/C#N)C(=O)NCc2ccco2)cc1` as the compound, how does the Potency read?
**A.** inconclusive: 29.1 µM [cytotoxic, partial curve, poor fit]

**Q.** With `CCN(CC)CC(=O)Nc1nc(-c2ccc(Cl)cc2)cs1` as the compound, how does the Potency read?
**A.** inconclusive: 29.1 µM [cytotoxic, single point]

**Q.** With `CC1CCCC(C)N1CCCNC(=O)c1cc2c(s1)-c1ccccc1OC2` (stereo unspecified) as the compound, how does the Potency read?
**A.** inactive

**Q.** Which Potency does the source give for `Cc1ccc(NC(=O)CCSc2nc(-c3ccc4c(c3)OCO4)cc(C(F)(F)F)n2)c(C)c1` here?
**A.** inconclusive: 20.6 µM [cytotoxic, single point]

**Q.** For `Cc1cc(C)c2nc(N(CCN(C)C)C(=O)/C=C/c3cccs3)sc2c1`, which Potency is on record?
**A.** inconclusive: 2.91 µM [cytotoxic, partial curve, poor fit]

**Q.** With `c1ccc(-c2cnc(-c3cccnc3)o2)cc1` as the compound, how does the Potency read?
**A.** inactive

**Q.** With `COc1ccc(N2CCN(S(=O)(=O)c3ccc4c(c3)NC(=O)C(C)S4)CC2)cc1` (stereo unspecified) as the compound, how does the Potency read?
**A.** inconclusive: 18.4 µM [cytotoxic, single point]

**Q.** For `Cc1csc(CNc2ncnc3ccc(-c4ccc5c(c4)OCO5)cc23)c1`, which Potency is on record?
**A.** inconclusive: 29.1 µM [cytotoxic, single point]

**Q.** With `CCc1ccccc1N(C(=O)CCC(=O)Nc1cc(C)on1)C(C(=O)NC1CCCC1)c1ccco1` (stereo unspecified) as the compound, how does the Potency read?
**A.** inconclusive: 29.1 µM [cytotoxic, single point]

**Q.** Which Potency does the source give for `CCN(C(=O)COC(=O)c1ccc2ccccc2n1)c1c(N)n(Cc2ccccc2)c(=O)[nH]c1=O` here?
**A.** inactive

**Q.** With `COc1ccc(C(=O)NCCOc2cccc(Oc3ccccc3)c2)cc1OC` as the compound, how does the Potency read?
**A.** inconclusive: 29.1 µM [cytotoxic, partial curve, poor fit]

**Q.** With `COc1ccc(/C=C2/SC(=S)N(CCC(=O)N3CCN(C)CC3)C2=O)cc1` as the compound, how does the Potency read?
**A.** inconclusive: 29.1 µM [cytotoxic, single point]

**Q.** With `C/C(=N\NC(=O)c1nnn(-c2nonc2N)c1CSc1ccc(C)cc1)c1cccs1` as the compound, how does the Potency read?
**A.** inconclusive: 16.4 µM [cytotoxic, partial curve, poor fit]

**Q.** For `CNS(=O)(=O)c1cnccc1N1CCN(c2cccc(Cl)c2)CC1`, which Potency is on record?
**A.** inactive

**Q.** For `O=C(CNC(=O)c1ccc(Br)cc1)c1ccccc1`, which Potency is on record?
**A.** inactive

**Q.** With `Clc1ccc(/C=C/c2nc3ccccc3[nH]2)c(Cl)c1` as the compound, how does the Potency read?
**A.** inactive

**Q.** With `O=C(O)CC(NC(=O)C1c2ccccc2Oc2ccccc21)c1ccc(Cl)cc1` (stereo unspecified) as the compound, how does the Potency read?
**A.** inactive

**Q.** For `Cn1c(=O)n(C)c2cc(N3CCOCC3)c(NS(=O)(=O)c3ccc(Cl)cc3)cc21`, which Potency is on record?
**A.** inactive

**Q.** For `Cc1nn(C2CCS(=O)(=O)C2)c(Cl)c1/C=C/C(=O)OCC(=O)c1cc(C)n(-c2ccc(F)cc2)c1C` (stereo unspecified), which Potency is on record?
**A.** inactive

**Q.** For `Cc1cccc(NC(=O)CN2CCC(C(=O)c3ccc4c(c3)OCCO4)CC2)c1`, which Potency is on record?
**A.** inconclusive: 20.6 µM [cytotoxic, partial curve]

**Q.** For `COc1ccccc1N1CCN(C(=O)c2cc3c(-c4ccccc4F)nn(C)c3s2)CC1`, which Potency is on record?
**A.** inconclusive: 7.31 µM [cytotoxic, partial curve, poor fit]

**Q.** With `COc1ccc(OC)c(N(CCN2C(=O)c3ccccc3C2=O)C(=O)CCl)c1` as the compound, how does the Potency read?
**A.** inconclusive: 20.6 µM [cytotoxic, single point]

**Q.** For `O=C(Nc1ccc(Br)cn1)c1cccc(-c2cc3ccccc3oc2=O)c1`, which Potency is on record?
**A.** inconclusive: 20.6 µM [cytotoxic, partial curve, poor fit]

**Q.** With `CC[n+]1ccccc1/C=C/Nc1ccccc1` as the compound, how does the Potency read?
**A.** inconclusive: 2.91 µM [cytotoxic, partial curve, poor fit]

**Q.** With `C=CCn1c(C(CCCC)CC(O)COCCC)n[nH]c1=S` (stereo unspecified) as the compound, how does the activity change, negative = cytotoxic read?
**A.** inconclusive: 34.8%

**Q.** For `CCOc1cc(NC(=S)NCC(C)C)c(OCC)cc1NC(=O)c1cccs1`, which Potency is on record?
**A.** inactive

**Q.** For `CSC1=N/C(=C\c2ccc(F)cc2)C(=O)S1`, which Potency is on record?
**A.** inactive

**Q.** Which Potency does the source give for `c1sc2[n+](c1C13CC4CC(CC(C4)C1)C3)CCS2` here?
**A.** inconclusive: 29.1 µM [cytotoxic, single point]

**Q.** For `Cc1ccc(S(=O)(=O)/N=C(\CCl)N2CCOCC2)cc1`, which Potency is on record?
**A.** inconclusive: 29.1 µM [cytotoxic, single point]

**Q.** With `O=C(Nc1ccn(Cc2ccccc2F)n1)c1ccc(COc2ccccc2Cl)cc1` as the compound, how does the Potency read?
**A.** inconclusive: 14.6 µM [cytotoxic, partial curve, poor fit]

**Q.** For `COc1cc(NS(=O)(=O)c2ccc3c(c2)oc(=O)n3C)cc(OC)c1OC`, which Potency is on record?
**A.** active: 7.31 µM

**Q.** With `COc1ccc(NC(=O)C(C)NS(=O)(=O)c2ccc(NC(C)=O)cc2)cc1Cl` (stereo unspecified) as the compound, how does the Potency read?
**A.** inconclusive: 18.4 µM [rising, single point]

**Q.** For `Cc1cc(/C=C(\C#N)C(=O)N2CCCCC2)cc(C)c1O`, which Potency is on record?
**A.** active: 16.4 µM

**Q.** With `COc1ccc(N2CCN(CCCNC(=O)c3ccc4nc(Cc5ccccc5)oc4c3)CC2)cc1` as the compound, how does the Potency read?
**A.** inconclusive: 20.6 µM [cytotoxic, single point]

**Q.** With `Cn1c(=O)c2c(nc(CN3CCN(c4ccccc4)CC3)n2Cc2ccccc2Cl)n(C)c1=O` as the compound, how does the Potency read?
**A.** inconclusive: 29.1 µM [cytotoxic, single point]

**Q.** Which Potency does the source give for `Cc1cc(C)cc(NC(=O)c2cccc(C(=O)Nc3cc(C)cc(C)c3)c2)c1` here?
**A.** inactive

**Q.** Which Potency does the source give for `CC(Oc1ccccc1)C(=O)Nc1nc(-c2ccccn2)cs1` (stereo unspecified) here?
**A.** inconclusive: 4.61 µM [cytotoxic, full curve]

**Q.** For `O=C(NCc1ccccc1)C1=C[C@H](c2csc3ccccc23)C[C@H](OCCCCO)O1`, which Potency is on record?
**A.** inconclusive: 29.1 µM [cytotoxic, single point]

**Q.** For `COC(=O)C1NN=C(C(=O)c2ccc(Br)cc2)C1c1cccc(Br)c1` (stereo unspecified), which Potency is on record?
**A.** inconclusive: 23.1 µM [cytotoxic, single point]

**Q.** With `COc1ccc(OC)c(NC(=O)Nc2ccc3c(c2)OCO3)c1` as the compound, how does the Potency read?
**A.** inconclusive: 29.1 µM [rising, single point]

**Q.** With `C=CCNc1nc(-c2sc(NC(=O)CC)nc2C)cs1` as the compound, how does the Potency read?
**A.** inconclusive: 29.1 µM [cytotoxic, single point]

**Q.** Which Potency does the source give for `CCOC(=O)C(C)n1nc(-c2ccccc2)c2ccccc2c1=O` (stereo unspecified) here?
**A.** inconclusive: 25.9 µM [cytotoxic, partial curve, poor fit]

**Q.** For `O=C1CCCCC1Nc1ccc2ccccc2c1` (stereo unspecified), which Potency is on record?
**A.** inconclusive: 14.6 µM [cytotoxic, partial curve]

**Q.** With `Cn1c(=O)cc(SCC(=O)NCc2ccco2)c2ccccc21` as the compound, how does the Potency read?
**A.** inconclusive: 29.1 µM [cytotoxic, single point]

**Q.** Which Potency does the source give for `Cc1cc(/C=C/c2ccnc3ccccc23)ccc1N` here?
**A.** inconclusive: 25.9 µM [cytotoxic, partial curve, poor fit]

**Q.** Which Potency does the source give for `Cn1c(-c2ccc3c(c2)OCO3)cnc1NC(=O)CCC(=O)NCCc1ccccc1` here?
**A.** inactive

**Q.** Which Potency does the source give for `Cc1nc(Nc2ccccc2)sc1-c1ccccc1` here?
**A.** inconclusive: 29.1 µM [cytotoxic, single point]

**Q.** Which Potency does the source give for `CCc1ccc2oc(-c3ccc(NC(=O)c4cccc(Cl)c4Cl)cc3)nc2c1` here?
**A.** inconclusive: 29.1 µM [cytotoxic, single point]

**Q.** Which Potency does the source give for `CCCn1nnc(NC(=S)NC(=O)/C=C/c2ccc(Cl)cc2)n1` here?
**A.** inactive

**Q.** With `CC(C)Cn1cc(-c2cccc3nccn23)cn1` as the compound, how does the Potency read?
**A.** inactive

**Q.** Which Potency does the source give for `O=C(COC(=O)c1n[nH]c2ccccc12)c1cccc(Br)c1` here?
**A.** inconclusive: 20.6 µM [rising, partial curve, poor fit]

**Q.** With `CCOC(=O)C1CCN(C(=O)COC(=O)c2ccc3[nH]c4c(c3c2)CCCC4)CC1` as the compound, how does the Potency read?
**A.** inactive

**Q.** Which Potency does the source give for `COC(=O)c1[nH]c2ccccc2c1NC(=O)CN1CCN(Cc2ccc3c(c2)OCO3)CC1` here?
**A.** inactive

**Q.** For `N#CN=c1snc(-c2ccccc2)n1-c1ccc(Cl)cc1`, which Potency is on record?
**A.** inactive

**Q.** For `COc1ccc(/C(C)=N/NC(=O)c2cc(-c3cccnc3)nc3ccccc23)cc1`, which Potency is on record?
**A.** inactive

**Q.** With `CNCc1cc(Cl)cc(OC)c1OC(C)C` as the compound, how does the Potency read?
**A.** inconclusive: 32.6 µM [cytotoxic, single point]

**Q.** With `O=C(CC1SC(=O)N(Cc2ccccc2)C1=O)Nc1nccs1` (stereo unspecified) as the compound, how does the Potency read?
**A.** inconclusive: 29.1 µM [rising, single point]

**Q.** With `CCc1nc2ccccc2c2nc3ccccc3n12` as the compound, how does the Potency read?
**A.** inconclusive: 29.1 µM [cytotoxic, single point]

**Q.** Which Potency does the source give for `CC(C)c1[nH]nc2c1C(c1cccs1)C(C#N)=C(N)O2` (stereo unspecified) here?
**A.** inconclusive: 25.9 µM [cytotoxic, single point]
